Test results: the RNAGym collection of RNA variant scans (doi:10.1126/science.aae0568)
This sample is rich in variants without activity.

B1: tRNA (parent)
chain: GUUCCGUUGGCGUAAUGGUAACGCGUCUCCCUCCUAAGGAGAAGACUGCGGGUUCGAGUCCCGUACGGAACG

Variants of: B1
Assay: yeast fitness relative to wild type (ratio to wild type); higher = fitter; tRNA-Arg(CCU), competitive growth, 37 C, YPD
How it was run: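 For this measurement, the tRNA-Arg(CCU) gene was varied by chemical synthesis at a 3% per-site mutation rate across 69 sites, and each variant was placed at the native genomic locus in Saccharomyces cerevisiae. The pooled strains went through a 24-hour competition in YPD at 37°C in six parallel replicates, with amplicons from start and end populations read by 100-nucleotide paired-end sequencing. Darwinian fitness relative to wild type followed from the change in each genotype's frequency. Genotypes needed ≥ 100 starting reads, and estimates < 0.5 were set to 0.5.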

Yeast fitness, 0.716:
U26C C34U

Yeast fitness, 0.922:
U16A C62U A69G

Yeast fitness, 0.984:
U2C A40G

Yeast fitness, 0.577:
C29U A42U A43U A57C A70G

Yeast fitness, 0.761:
G17A C49G

Yeast fitness, 0.525:
U7G C55G G63A G68C

Yeast fitness, 0.544:
U7C G67U A70U
A36U U53G

Yeast fitness, 0.566:
A36U C60U

Yeast fitness, 0.524:
C5U U13C U19A A21U C24A U54C U59C A69G

Yeast fitness, 0.563:
G41C G44C C55A

Yeast fitness, 0.775:
C5A U19G C31G U53A

Yeast fitness, 0.669:
C27U C46U G48A A70C

Yeast fitness, ≤ 0.5:
G9C C29G C34G A65U
C11U U13C C24A A43C G50C
U7G G18A G25A C29G C34A
C22G A36G A37G C60G A69G
G12A G48C U59A
C4U A15G A21G C34G A45G A65C
A14G A20G C33U G52A G63A
A42C C46G A65U
U8C A15C C33U U47G C49U G52C A70G
C24G U35G A40G
C5U C22G A42C U64G A70U
C5G A15C A42C G51C
C30G A42U A45G G56A A69U
G25C G52A U54G A65C
A21U C49G C62U
G10C G18C C30U C62A
C11A A14G U19G A43U U53A C66U
A14U C55A C60A
U8A G9A A40G A57C C62U
G9A C30A G48C
U19A A57G A69C A70G
C4G C27U A45C G48C C61G
G18C A43G C60U
A21U C30G U32C U53A A57G
U2G C24G C29G C31G A69U
G6A C11A C31U
C4U C27G U53A C66U
C46G G48A G68A
C4A A40U G67U A70C
A20U A40C C46U C55G A70U
U2A G9A U13A C24A A45C C55U
C11G U35A C62A C66G
U13C A14U C46U G50C
U2A C33U C34U G38A G51A C55A A65U
G9C A14C A15U G23A C34A U54C A65G
U19C C27G G51A C62U
G12C C27A C29U
U13C C27U C31A U35C C55G C66U A70C
C4G C5G C34G A57G A65G C66U
U2G C29U G44C
A15U A37G C66G
G38U A57C U64A
C11A U16C C31U A69U
G12C A15C A20U A70C
U2A A15G C22U
G9C C22U A70G
G18A A21U C34U
C5A G52C C66U
G10A A37C G48A
U3G G25A C27A G50C
C11G C24U A57G G68C
A21C G25C U26A U59A A70C
U2A G23C C27U C31G A42C
U16C A36G G39A A45G U59A
A42U A43U C60U A69U
A14G G18A A20C A40C A45G G52A
G6A C11U C49G C62U
U2C G17A U19C G50C
C4U C11U C30G
A15U U16C G18C C29A C66A A69U
U35A C49G C66G
U7G C29A C34A C62A
C4A G6C C55U
U16G G41C C46U C61A G67A
C31G C34U G67C
G10C C22A C55U
C27G G39A C46U C55A C66A
C33G A57U G68A A69U
G12A C30G A42C A57U
U3C A15G A40U C55G C61G

Yeast fitness, 0.981:
G41C G48A
